# Results are given in words; binding and its absence hold for the method and conditions named. In cells and extracts the contact can be indirect. Binding can be weak; no strength is given. Where a sequence is shown, tags or fusion partners need not be part of it.
# T1: Myc-Smo^SA (phosphorylation deficient form of Smo with three PKA sites mutated to Ala) (Drosophila) (UniProt P91682)
# T1 sequence: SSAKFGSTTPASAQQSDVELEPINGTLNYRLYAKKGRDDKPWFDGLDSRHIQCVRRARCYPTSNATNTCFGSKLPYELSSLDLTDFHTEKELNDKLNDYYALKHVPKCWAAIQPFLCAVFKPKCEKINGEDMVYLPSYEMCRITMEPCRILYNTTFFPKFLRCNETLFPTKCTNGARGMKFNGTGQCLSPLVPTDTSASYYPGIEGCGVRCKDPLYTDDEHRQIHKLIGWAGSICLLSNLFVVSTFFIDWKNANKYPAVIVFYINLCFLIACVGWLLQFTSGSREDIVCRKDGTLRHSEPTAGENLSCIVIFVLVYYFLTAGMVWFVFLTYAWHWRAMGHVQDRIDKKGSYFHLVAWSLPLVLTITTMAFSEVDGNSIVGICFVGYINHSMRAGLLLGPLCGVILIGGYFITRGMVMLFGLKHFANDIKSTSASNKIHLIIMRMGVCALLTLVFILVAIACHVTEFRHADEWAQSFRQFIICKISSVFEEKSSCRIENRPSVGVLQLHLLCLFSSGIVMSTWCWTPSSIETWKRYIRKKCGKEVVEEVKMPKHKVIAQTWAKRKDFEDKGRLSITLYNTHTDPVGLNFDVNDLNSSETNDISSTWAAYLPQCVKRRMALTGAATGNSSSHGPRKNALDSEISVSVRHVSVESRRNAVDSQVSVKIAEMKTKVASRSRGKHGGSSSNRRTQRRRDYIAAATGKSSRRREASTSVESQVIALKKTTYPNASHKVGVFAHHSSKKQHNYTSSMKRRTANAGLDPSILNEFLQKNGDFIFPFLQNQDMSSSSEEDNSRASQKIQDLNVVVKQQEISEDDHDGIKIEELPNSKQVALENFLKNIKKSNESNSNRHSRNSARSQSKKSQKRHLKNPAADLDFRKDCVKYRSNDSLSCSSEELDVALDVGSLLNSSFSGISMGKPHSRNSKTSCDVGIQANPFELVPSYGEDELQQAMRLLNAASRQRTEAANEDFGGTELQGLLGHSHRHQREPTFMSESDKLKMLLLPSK
# T2: Myc-tagged wild type Smoothened (Myc-Smo) (Drosophila) (UniProt P91682)
# T2 sequence: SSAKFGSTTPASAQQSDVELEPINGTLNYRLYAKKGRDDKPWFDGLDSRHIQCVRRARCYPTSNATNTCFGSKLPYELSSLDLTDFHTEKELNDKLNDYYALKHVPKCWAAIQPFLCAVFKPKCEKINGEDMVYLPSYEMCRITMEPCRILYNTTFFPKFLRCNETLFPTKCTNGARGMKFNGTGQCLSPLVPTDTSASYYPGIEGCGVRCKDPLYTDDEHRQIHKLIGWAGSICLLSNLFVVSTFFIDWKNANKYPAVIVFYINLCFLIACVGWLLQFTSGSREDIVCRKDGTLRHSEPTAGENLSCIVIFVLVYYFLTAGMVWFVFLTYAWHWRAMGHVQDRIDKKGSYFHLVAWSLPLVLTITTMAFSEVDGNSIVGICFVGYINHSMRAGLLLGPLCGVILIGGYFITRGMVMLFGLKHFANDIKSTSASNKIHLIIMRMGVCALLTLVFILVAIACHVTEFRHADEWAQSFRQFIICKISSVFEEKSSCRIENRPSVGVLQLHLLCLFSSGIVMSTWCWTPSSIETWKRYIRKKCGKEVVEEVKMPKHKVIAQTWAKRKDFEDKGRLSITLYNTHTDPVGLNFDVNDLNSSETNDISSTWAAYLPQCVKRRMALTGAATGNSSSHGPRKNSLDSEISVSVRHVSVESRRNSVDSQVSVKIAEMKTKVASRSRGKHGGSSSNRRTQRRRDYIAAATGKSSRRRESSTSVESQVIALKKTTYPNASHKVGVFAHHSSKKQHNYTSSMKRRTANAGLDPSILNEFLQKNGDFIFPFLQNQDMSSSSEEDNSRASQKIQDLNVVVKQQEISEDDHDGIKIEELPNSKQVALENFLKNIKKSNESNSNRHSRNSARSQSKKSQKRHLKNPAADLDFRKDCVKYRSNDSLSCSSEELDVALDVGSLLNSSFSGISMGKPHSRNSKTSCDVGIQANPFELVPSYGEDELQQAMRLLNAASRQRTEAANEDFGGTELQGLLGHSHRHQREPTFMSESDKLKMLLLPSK
# Experiments:
# [1] = target: T1, Myc-Smo^SA (phosphorylation deficient form of Smo with three PKA sites mutated to Ala) (Drosophila); assay: co-IP; S2 cells transfected with Fg-UBPY and Myc-tagged wild type Smo or Smo variants, treated with or without Hh-conditioned medium; Myc-Smo as bait, Western blot of lysates and immunoprecipitates
# [2] = target: T2, Myc-tagged wild type Smoothened (Myc-Smo) (Drosophila); assay: as above
# [3] = target: Myc-Smo^CT (a Smo variant only containing its C-tail) (Drosophila); assay: co-IP; S2 cells transfected with Krz-YFP and Myc-tagged wild type Smo or Smo variants, treated with or without Hh-conditioned medium; Myc-Smo as bait, Western blot of lysates and immunoprecipitates
# [4] = target: Myc-Smo^SD (phospho-mimetic form of Smo with three PKA/CK1 clusters mutated to Asp) (Drosophila) (UniProt P91682); assay: as above
binding [1],binding [2],binding [3],binding [4],Molecule
binds,binds,–,–,flag-tagged UBPY (Fg-UBPY) (Drosophila) (enzyme)
–,–,binds,binds,"C-terminally YFP-tagged Kurtz (Krz-YFP) (protein, UniProt Q9V393 1-470) MNGGGGGSGGANVSNGSSTNVTAAGSTGGGSAGDETGGDASSRRQATRVFKKSSSNGKITVYLGKRDFVDHVTHVDPIDGVVFIDPEYVKDRKVFGQVLAAFRYGREDLDVLGLTFRKDLYLAHEQIYPPMQLDRPMTRLQERLIKKLGPNAHPFYFEVPPYCPASVSLQPAPGDVGKSCGVDYELKAFVGENVEDKPHKRNSVRLTIRKVMYAPSKVGEQPSIEVSKEFMMKPNKIHLEATLDKELYHHGEKISVNVHVANNSNRTVKKIKVCVRQFADICLFSTAQYKSVVAEIESEDGCQVAPGFTLSKVFELCPLLANNKDKWGLALDGQLKHEDTNLASSTLITNPAQRESLGIMVHYKVKVKLLISSPLLNGDLVAELPFTLMHPKPEEEEHPLLGERSPRASLAGGGLPLVSMSDGETESATGGQDVPTTTNLIQLDDDEAQDDDIIFEDFARLRLKGAETEA"

# — PMC3254653
